Data as given in article PMC5682287.
Numbering of substitutions follows the chain as printed. Numbers in names are those of the source. No constants are given. Whether binding was seen depends on the method and setting. In cells and extracts the contact can be indirect. Some entries that bind do so weakly or less than the wild type. For part of these data: Sequences can lack the tags named with a protein. Each block holds one binder with its values, some of them ahead of it.

The chains behind the UniProt entries cited, without tags or fusion partners.
UniProt Q04206: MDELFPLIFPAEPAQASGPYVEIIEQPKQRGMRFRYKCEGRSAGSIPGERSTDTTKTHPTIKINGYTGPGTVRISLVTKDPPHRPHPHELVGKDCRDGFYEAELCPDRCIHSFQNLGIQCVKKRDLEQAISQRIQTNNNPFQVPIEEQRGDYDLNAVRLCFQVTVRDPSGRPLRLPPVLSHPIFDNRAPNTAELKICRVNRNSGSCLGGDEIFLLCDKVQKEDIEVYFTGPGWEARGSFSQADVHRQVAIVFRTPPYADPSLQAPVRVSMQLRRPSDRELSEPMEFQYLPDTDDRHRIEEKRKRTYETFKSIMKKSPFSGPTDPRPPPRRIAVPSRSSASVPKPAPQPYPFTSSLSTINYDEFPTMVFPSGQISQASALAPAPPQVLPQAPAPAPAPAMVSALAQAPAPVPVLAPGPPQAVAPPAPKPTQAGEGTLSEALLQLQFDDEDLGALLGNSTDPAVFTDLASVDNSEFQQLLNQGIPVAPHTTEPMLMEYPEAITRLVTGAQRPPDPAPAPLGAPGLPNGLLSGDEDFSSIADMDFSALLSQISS
UniProt P40763: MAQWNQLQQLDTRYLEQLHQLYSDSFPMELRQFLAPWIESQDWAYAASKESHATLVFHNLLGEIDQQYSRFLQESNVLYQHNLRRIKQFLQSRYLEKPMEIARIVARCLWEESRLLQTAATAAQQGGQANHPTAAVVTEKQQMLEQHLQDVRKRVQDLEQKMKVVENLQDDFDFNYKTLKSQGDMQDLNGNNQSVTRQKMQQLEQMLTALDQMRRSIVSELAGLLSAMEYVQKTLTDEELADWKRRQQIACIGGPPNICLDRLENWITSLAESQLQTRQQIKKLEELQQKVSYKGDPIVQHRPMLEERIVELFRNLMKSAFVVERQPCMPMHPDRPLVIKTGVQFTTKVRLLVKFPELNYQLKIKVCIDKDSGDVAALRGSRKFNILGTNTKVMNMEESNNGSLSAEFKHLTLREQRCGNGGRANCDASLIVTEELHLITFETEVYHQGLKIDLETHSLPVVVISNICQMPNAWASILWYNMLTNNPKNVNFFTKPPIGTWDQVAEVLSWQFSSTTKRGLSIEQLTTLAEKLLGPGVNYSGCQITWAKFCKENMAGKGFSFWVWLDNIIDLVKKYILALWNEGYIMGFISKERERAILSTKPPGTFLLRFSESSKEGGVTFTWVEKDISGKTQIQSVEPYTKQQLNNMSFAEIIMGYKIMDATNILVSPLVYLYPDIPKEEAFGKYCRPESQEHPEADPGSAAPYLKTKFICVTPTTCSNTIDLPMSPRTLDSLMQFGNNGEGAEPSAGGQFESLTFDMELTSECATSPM

Key:
[1] = target: NF-κB subunit p65, endogenous (human (endogenous in U87 and LN229)) (UniProt Q04206); assay: co-IP; endogenous proteins in lysates of LN229 and U87 GBM cells with or without EGFRvIII (also EGF 20 ng/ml with or without erlotinib 10 μM, 24 h); IP buffer 20 mM Tris-HCl pH 7.5, 150 mM NaCl, 1 mM EDTA, 1% Triton X-100, 4 °C; protein G-agarose; Western blot
[2] = target: STAT3, endogenous (human (endogenous in U87 and LN229)) (UniProt P40763); assay: as above
[3] = target: phospho-STAT3 (p-STAT3), endogenous (human (endogenous in U87 and LN229)) (UniProt P40763); assay: as above
[4] = target: STAT3, endogenous (human (endogenous in U87 and LN229)) (UniProt P40763); assay: co-IP; Flag-tagged shRNA-resistant TRIM24 constructs re-expressed in LN229/vIII/shT24 and U87/vIII/shT24 GBM cells; lysates in IP buffer (20 mM Tris-HCl pH 7.5, 150 mM NaCl, 1 mM EDTA, 1% Triton X-100); protein G-agarose; Western blot
[5] = target: STAT3, endogenous (human (endogenous in U87 and LN229)) (UniProt P40763); assay: co-IP; TRIM24^WT or TRIM24 deletion mutants transfected into U87 GBM cells; endogenous STAT3; lysates in IP buffer (20 mM Tris-HCl pH 7.5, 150 mM NaCl, 1 mM EDTA, 1% Triton X-100); Western blot

B2: Flag-tagged shRNA-resistant TRIM24 wild type (TRIM24^WT*) (protein, UniProt O15164 1-1050)
chain: MEVAVEKAVAAAAAASAAASGGPSAAPSGENEAESRQGPDSERGGEAARLNLLDTCAVCHQNIQSRAPKLLPCLHSFCQRCLPAPQRYLMLPAPMLGSAETPPPVPAPGSPVSGSSPFATQVGVIRCPVCSQECAERHIIDNFFVKDTTEVPSSTVEKSNQVCTSCEDNAEANGFCVECVEWLCKTCIRAHQRVKFTKDHTVRQKEEVSPEAVGVTSQRPVFCPFHKKEQLKLYCETCDKLTCRDCQLLEHKEHRYQFIEEAFQNQKVIIDTLITKLMEKTKYIKFTGNQIQNRIIEVNQNQKQVEQDIKVAIFTLMVEINKKGKALLHQLESLAKDHRMKLMQQQQEVAGLSKQLEHVMHFSKWAVSSGSSTALLYSKRLITYRLRHLLRARCDASPVTNNTIQFHCDPSFWAQNIINLGSLVIEDKESQPQMPKQNPVVEQNSQPPSGLSSNQLSKFPTQISLAQLRLQHMQQQVMAQRQQVQRRPAPVGLPNPRMQGPIQQPSISHQQPPPRLINFQNHSPKPNGPVLPPHPQQLRYPPNQNIPRQAIKPNPLQMAFLAQQAIKQWQISSGQGTPSTTNSTSSTPSSPTITSAAGYDGKAFGSPMIDLSSPVGGSYNLPSLPDIDCSSTIMLDNIVRKDTNIDHGQPRPPSNRTVQSPNSSVPSPGLAGPVTMTSVHPPIRSPSASSVGSRGSSGSSSKPAGADSTHKVPVVMLEPIRIKQENSGPPENYDFPVVIVKQESDEESRPQNANYPRSILTSLLLNSSQSSTSEETVLRSDAPDSTGDQPGLHQDNSSNGKSEWLDPSQKSPLHVGETRKEDDPNEDWCAVCQNGGELLCCEKCPKVFHLSCHVPTLTNFPSGEWICTFCRDLSKPEVEYDCDAPSHNSEKKKTEGLVKLTPIDKRKCERLLLFLYCHEMSLAFQDPVPLTVPDYYKIIKNPMDLSTIKKRLQEDYSMYSKPEDFVADFRLIFQNCAEFNEPDSEVANAGIKLENYFEELLKNLYPEKRFPKPEFRNESEDNKFSDDSDDDFVQPRKKRLKSIEERQLLK
binding [4]: binds

B3: TRIM24^WT transfected into U87 GBM cells (protein, UniProt O15164 1-1050)
chain: B2 chain
binding [5]: binds

Other lines, results leading:

binding [1]: no binding
binding [2]: binds
binding [3]: binds
B1: tripartite motif-containing 24 (TRIM24), endogenous (protein, UniProt O15164 1-1050)
chain: B2 chain

binding [4]: no binding
B4: Flag-tagged shRNA-resistant TRIM24 R193A/K195A mutant (TRIM24^R193A/K195A*) (protein, UniProt O15164 1-1050)
chain: B2 chain with R193A, K195A
